Laboratory results as given in paper PMC11237490.
No constants are given. Whether binding was seen depends on the method and setting. Binding seen in cells or lysates may run through a third protein. For some of these results: Binding calls can cover weak binding; strength is not graded here. Where a sequence is shown, tags or fusion partners need not be part of it.

The chains behind the UniProt entries cited, without tags or fusion partners. Where a name states a change or a piece, a line headed by the entry shows the natural chain unless it says otherwise.
UniProt Q2G2N2: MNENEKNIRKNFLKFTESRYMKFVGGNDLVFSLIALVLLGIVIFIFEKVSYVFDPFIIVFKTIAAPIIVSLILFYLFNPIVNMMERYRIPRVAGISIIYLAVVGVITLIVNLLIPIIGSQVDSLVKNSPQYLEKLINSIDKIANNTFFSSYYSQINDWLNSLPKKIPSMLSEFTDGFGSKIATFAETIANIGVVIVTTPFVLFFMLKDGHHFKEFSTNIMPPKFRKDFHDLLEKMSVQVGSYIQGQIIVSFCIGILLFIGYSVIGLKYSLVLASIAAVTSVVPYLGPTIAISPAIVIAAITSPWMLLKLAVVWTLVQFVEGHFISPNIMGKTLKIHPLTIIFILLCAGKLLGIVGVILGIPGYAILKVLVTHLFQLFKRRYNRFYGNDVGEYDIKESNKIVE

What was measured:
[1] = target: T1, LtaA fused C-terminally to LgBit (S. aureus NCTC8325-4) (UniProt Q2FZP8); assay: split reporter; split luciferase in live S. aureus; CozE fused to SmBit and UgtP or LtaA fused to LgBit on one plasmid; 90 minutes at 37°C with 100 ng/mL anhydrotetracycline; Nano-Glo reagent, luminescence (460 nm) normalized to cell density
T1 sequence: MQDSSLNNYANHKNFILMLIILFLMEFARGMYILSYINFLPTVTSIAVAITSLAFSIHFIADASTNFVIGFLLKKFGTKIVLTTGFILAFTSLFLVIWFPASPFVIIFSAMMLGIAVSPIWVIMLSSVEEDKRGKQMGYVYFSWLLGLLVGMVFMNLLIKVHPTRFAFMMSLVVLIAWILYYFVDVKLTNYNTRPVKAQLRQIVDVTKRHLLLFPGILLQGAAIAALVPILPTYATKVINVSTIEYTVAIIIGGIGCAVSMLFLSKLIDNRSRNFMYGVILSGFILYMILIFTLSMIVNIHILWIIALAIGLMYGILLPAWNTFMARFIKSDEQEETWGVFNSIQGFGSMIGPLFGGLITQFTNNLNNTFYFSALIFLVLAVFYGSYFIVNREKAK

[2] = target: T2, UgtP fused C-terminally to LgBit (S. aureus NCTC8325-4) (UniProt Q2FZP7); assay: as above
T2 sequence: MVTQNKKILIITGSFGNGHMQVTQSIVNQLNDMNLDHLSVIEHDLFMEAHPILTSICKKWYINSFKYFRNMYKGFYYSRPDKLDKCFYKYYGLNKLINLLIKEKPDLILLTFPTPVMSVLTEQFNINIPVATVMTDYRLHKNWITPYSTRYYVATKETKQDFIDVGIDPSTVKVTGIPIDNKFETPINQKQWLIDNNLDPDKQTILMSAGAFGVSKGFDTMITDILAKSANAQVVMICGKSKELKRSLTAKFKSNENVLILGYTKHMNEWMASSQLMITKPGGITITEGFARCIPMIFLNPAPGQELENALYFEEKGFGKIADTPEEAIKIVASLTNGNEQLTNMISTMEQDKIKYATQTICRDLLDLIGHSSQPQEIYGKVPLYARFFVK

“CozEa fused C-terminally to SmBit (S. aureus NCTC8325-4)” was tested, and the binding [1] was “binds” and the binding [2] was “no binding”.

For “CozEb fused C-terminally to SmBit (from UniProt Q2G2N2)”, the binding [1] was “binds” and the binding [2] was “no binding”.
